Results published in patent US7632972B2, “Compounds and methods for treatment of cancer and modulation of programmed cell death for melanoma and other cancer cells” (The Board of Trustees of the University of Illionis, priority 2003, dated 2009).

Legend:
Format in all cases: cell-based, human
RPMI-8226 = test: NCI 60 cell line screen (SRB), Leukemia
Source text: (§1) The operation of this screen utilizes 60 different human tumor cell lines, representing leukemia, melanoma and cancers of the lung, colon, brain, ovary, breast, prostate, and kidney. The aim is to prioritize for further evaluation, synthetic compounds or natural product samples showing selective growth inhibition or cell killing of particular tumor cell lines. This screen is unique in that the complexity of a 60 cell line dose response produced by a given compound results in a biological response pattern which can be utilized in pattern recognition algorithms. Using these algorithms, it is possible to assign a putative mechanism of action to a test compound, or to determine that the response pattern is unique and not similar to that of any of the standard prototype compounds included in the NCl database (see DTP Overview tab). In addition, following characterization of various cellular molecular targets in the 60 cell lines, it may be possible to select compounds most likely to interact with a specific molecular target.
(§2) The human tumor cell lines of the cancer screening panel are grown in RPMI 1640 medium containing 5% fetal bovine serum and 2 mM L-glutamine. For a typical screening experiment, cells are inoculated into 96 well microtiter plates in 100 μL at plating densities ranging from 5,000 to 40,000 cells/well depending on the doubling time of individual cell lines. After cell inoculation, the microtiter plates are incubated at 37° C., 5% CO2, 95% air and 100% relative humidity for 24 h prior to addition of experimental drugs.
(§3) After 24 h, two plates of each cell line are fixed in situ with TCA, to represent a measurement of the cell population for each cell line at the time of drug addition (Tz). Experimental drugs are solubilized in dimethyl sulfoxide at 400-fold the desired final maximum test concentration and stored frozen prior to use. At the time of drug addition, an aliquot of frozen concentrate is thawed and diluted to twice the desired final maximum test concentration with complete medium containing 50 μg/ml gentamicin. Additional four, 10-fold or ½ log serial dilutions are made to provide a total of five drug concentrations plus control. Aliquots of 100 μl of these different drug dilutions are added to the appropriate microtiter wells already containing 100 μl of medium, resulting in the required final drug concentrations.
(§4) Following drug addition, the plates are incubated for an additional 48 h at 37° C., 5% CO2, 95% air, and 100% relative humidity. For adherent cells, the assay is terminated by the addition of cold TCA. Cells are fixed in situ by the gentle addition of 50 μl of cold 50% (w/v) TCA (final concentration, 10% TCA) and incubated for 60 minutes at 4° C. The supernatant is discarded, and the plates are washed five times with tap water and air dried. Sulforhodamine B (SRB) solution (100 μl) at 0.4% (w/v) in 1% acetic acid is added to each well, and plates are incubated for 10 minutes at room temperature. After staining, unbound dye is removed by washing five times with 1% acetic acid and the plates are air dried. Bound stain is subsequently solubilized with 10 mM trizma base, and the absorbance is read on an automated plate reader at a wavelength of 515 nm. For suspension cells, the methodology is the same except that the assay is terminated by fixing settled cells at the bottom of the wells by gently adding 50 μl of 80% TCA (final concentration, 16% TCA). Using the seven absorbance measurements [time zero, (Tz), control growth, (C), and test growth in the presence of drug at the five concentration levels (Ti)], the percentage growth is calculated at each of the drug concentrations levels. Percentage growth inhibition is calculated as: [(Ti−Tz)/(C−Tz)]×100 for concentrations for which Ti>/=Tz [(Ti−Tz)/Tz]×100 for concentrations for which Ti<Tz.
(§5) Three dose response parameters are calculated for each experimental agent. […]

K-562 = test: NCI 60 cell line screen (SRB), Leukemia
Source text: as §1, §2, §3, §4, §5

MOLT-4 = test: NCI 60 cell line screen (SRB), Leukemia
Source text: as §1, §2, §3, §4, §5

MDA-MB-435 = test: NCI 60 cell line screen (SRB), Breast Cancer
Source text: as §1, §2, §3, §4, §5

MCF7 = test: NCI 60 cell line screen (SRB), Breast Cancer
Source text: as §1, §2, §3, §4, §5

T-47D = test: NCI 60 cell line screen (SRB), Breast Cancer
Source text: as §1, §2, §3, §4, §5

MDA-MB-231/ATCC = test: NCI 60 cell line screen (SRB), Breast Cancer
Source text: as §1, §2, §3, §4, §5

NCI/ADR-RES = test: NCI 60 cell line screen (SRB), Breast Cancer
Source text: as §1, §2, §3, §4, §5

IGROV1 = test: NCI 60 cell line screen (SRB), Ovarian Cancer
Source text: as §1, §2, §3, §4, §5

OVCAR-5 = test: NCI 60 cell line screen (SRB), Ovarian Cancer
Source text: as §1, §2, §3, §4, §5

SK-OV-3 = test: NCI 60 cell line screen (SRB), Ovarian Cancer
Source text: as §1, §2, §3, §4, §5

COc1cccc(CCNC(=O)CC(c2ccccc2)(c2ccccc2)c2ccccc2)c1 [Compound Z3]
Mean Optical Densities (RPMI-8226; RPMI-8226, Log10 Concentration −4.0): 0.416
Mean Optical Densities (RPMI-8226; RPMI-8226, Log10 Concentration −5.0): 0.450
Mean Optical Densities (RPMI-8226; RPMI-8226, Log10 Concentration −6.0): 0.945
Mean Optical Densities (RPMI-8226; RPMI-8226, Log10 Concentration −7.0): 0.954
Mean Optical Densities (RPMI-8226; RPMI-8226, Log10 Concentration −8.0): 0.898
Mean Optical Densities (K-562; K-562, Log10 Concentration −4.0): 0.445
Mean Optical Densities (K-562; K-562, Log10 Concentration −5.0): 0.491
Mean Optical Densities (K-562; K-562, Log10 Concentration −6.0): 1.198
Mean Optical Densities (K-562; K-562, Log10 Concentration −7.0): 1.195
Mean Optical Densities (K-562; K-562, Log10 Concentration −8.0): 1.213
Mean Optical Densities (MOLT-4; MOLT-4, Log10 Concentration −4.0): 0.229
Mean Optical Densities (MOLT-4; MOLT-4, Log10 Concentration −5.0): 0.233
Mean Optical Densities (MOLT-4; MOLT-4, Log10 Concentration −6.0): 0.551
Mean Optical Densities (MOLT-4; MOLT-4, Log10 Concentration −7.0): 0.623
Mean Optical Densities (MOLT-4; MOLT-4, Log10 Concentration −8.0): 0.588
Mean Optical Densities (MDA-MB-435; MDA-MB-435, Log10 Concentration −4.0): 1.301
Mean Optical Densities (MDA-MB-435; MDA-MB-435, Log10 Concentration −5.0): 1.398
Mean Optical Densities (MDA-MB-435; MDA-MB-435, Log10 Concentration −6.0): 1.779
Mean Optical Densities (MDA-MB-435; MDA-MB-435, Log10 Concentration −7.0): 1.913
Mean Optical Densities (MDA-MB-435; MDA-MB-435, Log10 Concentration −8.0): 1.780
Mean Optical Densities (MCF7; MCF7, Log10 Concentration −4.0): 0.245
Mean Optical Densities (MCF7; MCF7, Log10 Concentration −5.0): 0.367
Mean Optical Densities (MCF7; MCF7, Log10 Concentration −6.0): 0.475
Mean Optical Densities (MCF7; MCF7, Log10 Concentration −7.0): 0.605
Mean Optical Densities (MCF7; MCF7, Log10 Concentration −8.0): 0.498
Mean Optical Densities (T-47D; Log10 Concentration −4.0): 0.631
Mean Optical Densities (T-47D; Log10 Concentration −5.0): 0.549
Mean Optical Densities (T-47D; Log10 Concentration −6.0): 0.613
Mean Optical Densities (T-47D; Log10 Concentration −7.0): 0.700
Mean Optical Densities (T-47D; Log10 Concentration −8.0): 0.615
Mean Optical Densities (MDA-MB-231/ATCC; Log10 Concentration −4.0): 0.941
Mean Optical Densities (MDA-MB-231/ATCC; Log10 Concentration −5.0): 0.768
Mean Optical Densities (MDA-MB-231/ATCC; Log10 Concentration −6.0): 0.732
Mean Optical Densities (MDA-MB-231/ATCC; Log10 Concentration −7.0): 0.755
Mean Optical Densities (MDA-MB-231/ATCC; Log10 Concentration −8.0): 0.752
Mean Optical Densities (NCI/ADR-RES; Log10 Concentration −4.0): 0.324
Mean Optical Densities (NCI/ADR-RES; Log10 Concentration −5.0): 0.356
Mean Optical Densities (NCI/ADR-RES; Log10 Concentration −6.0): 0.413
Mean Optical Densities (NCI/ADR-RES; Log10 Concentration −7.0): 0.462
Mean Optical Densities (NCI/ADR-RES; Log10 Concentration −8.0): 0.411
Mean Optical Densities (IGROV1; IGROV1, Log10 Concentration −4.0): 0.342
Mean Optical Densities (IGROV1; IGROV1, Log10 Concentration −5.0): 0.367
Mean Optical Densities (IGROV1; IGROV1, Log10 Concentration −6.0): 0.371
Mean Optical Densities (IGROV1; IGROV1, Log10 Concentration −7.0): 0.460
Mean Optical Densities (IGROV1; IGROV1, Log10 Concentration −8.0): 0.384
Mean Optical Densities (OVCAR-5; OVCAR-5, Log10 Concentration −4.0): 0.438
Mean Optical Densities (OVCAR-5; OVCAR-5, Log10 Concentration −5.0): 0.559
Mean Optical Densities (OVCAR-5; OVCAR-5, Log10 Concentration −6.0): 0.658
Mean Optical Densities (OVCAR-5; OVCAR-5, Log10 Concentration −7.0): 0.671
Mean Optical Densities (OVCAR-5; OVCAR-5, Log10 Concentration −8.0): 0.679
Mean Optical Densities (SK-OV-3; SK-OV-3, Log10 Concentration −4.0): 0.877
Mean Optical Densities (SK-OV-3; SK-OV-3, Log10 Concentration −5.0): 0.862
Mean Optical Densities (SK-OV-3; SK-OV-3, Log10 Concentration −6.0): 0.936
Mean Optical Densities (SK-OV-3; SK-OV-3, Log10 Concentration −7.0): 0.944
Mean Optical Densities (SK-OV-3; SK-OV-3, Log10 Concentration −8.0): 0.906
